Reference: PubChem BioAssay AID1224830 (NIAID, 2016)
In all, the deposit lists about 18,000 reagents; this is a part drawn at random. Of all reagents, about 2,900 (16%) are marked active. 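Calls are made per well; low scores hint the gene aids the LPS response, high scores that it dampens it.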 Repeated entries: four replicate wells of each siRNA pool.

Purpose: 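Genes whose knock-down alters the TNF-alpha reporter response to LPS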 (primary screen)
Cells: human THP-1 monocytic leukaemia cells, TNF dual-luciferase reporter clone, PMA-differentiated to macrophage-like cells
Knock-down reagent: siRNA pool against human genes, 50 nM
Duration: LPS for 4 h, given about 3 days after siRNA transfection
Challenge: bacterial LPS (TLR4 ligand), 10 ng/ml
Read-out: 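Ratio of firefly to renilla light, scaled to the plate median and expressed as a robust z-score per replicate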
Scale: TNF reporter robust z-score: higher = stronger TNF reporter response to LPS
Hit rule: 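Each well counts as active if its z-score is over 2.8 or under -1.5; controls are left without a call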

| target | TNF reporter robust z-score | Call |
| --- | --- | --- |
| SMC3 (GeneID 9126) | 3.42 | active |
| SMC3 (GeneID 9126) | 6.73 | active |
| SMC3 (GeneID 9126) | 5.25 | active |
| SMC3 (GeneID 9126) | 1.99 | inactive |
| SENP5 (GeneID 205564) | -0.14 | inactive |
| SENP5 (GeneID 205564) | 3.44 | active |
| SENP5 (GeneID 205564) | 1.21 | inactive |
| SENP5 (GeneID 205564) | -0.68 | inactive |
| LCN1 (GeneID 3933) | 1.57 | inactive |
| LCN1 (GeneID 3933) | 6.4 | active |
| LCN1 (GeneID 3933) | 1.27 | inactive |
| LCN1 (GeneID 3933) | 1.14 | inactive |
| MICALL2 (GeneID 79778) | -0.37 | inactive |
| MICALL2 (GeneID 79778) | -0.18 | inactive |
| MICALL2 (GeneID 79778) | -0.89 | inactive |
| MICALL2 (GeneID 79778) | 0.23 | inactive |
| DHX57 (GeneID 90957) | -0.51 | inactive |
| DHX57 (GeneID 90957) | -0.73 | inactive |
| DHX57 (GeneID 90957) | -0.87 | inactive |
| DHX57 (GeneID 90957) | -0.27 | inactive |
| CDH5 (GeneID 1003) | 0.8 | inactive |
| CDH5 (GeneID 1003) | -0.67 | inactive |
| CDH5 (GeneID 1003) | -1.04 | inactive |
| CDH5 (GeneID 1003) | -0.88 | inactive |
| H2AC8 (GeneID 3012) | 0.01 | inactive |
| H2AC8 (GeneID 3012) | -0.49 | inactive |
| H2AC8 (GeneID 3012) | -0.57 | inactive |
| H2AC8 (GeneID 3012) | -0.61 | inactive |
| PWP1 (GeneID 11137) | 0.06 | inactive |
| PWP1 (GeneID 11137) | 0.3 | inactive |
| PWP1 (GeneID 11137) | 0.13 | inactive |
| PWP1 (GeneID 11137) | 0.03 | inactive |
| TMEM268 (GeneID 203197) | 0.64 | inactive |
| TMEM268 (GeneID 203197) | 0.61 | inactive |
| TMEM268 (GeneID 203197) | -0.48 | inactive |
| TMEM268 (GeneID 203197) | 0.39 | inactive |
| DRAP1 (GeneID 10589) | 0.58 | inactive |
| DRAP1 (GeneID 10589) | 0.08 | inactive |
| DRAP1 (GeneID 10589) | 0.38 | inactive |
| DRAP1 (GeneID 10589) | -0.51 | inactive |
| ATP6V0B (GeneID 533) | 0.14 | inactive |
| ATP6V0B (GeneID 533) | 0.52 | inactive |
| ATP6V0B (GeneID 533) | -0.18 | inactive |
| ATP6V0B (GeneID 533) | -0.31 | inactive |
| CYP4V2 (GeneID 285440) | -0.06 | inactive |
| CYP4V2 (GeneID 285440) | 0.08 | inactive |
| CYP4V2 (GeneID 285440) | -0.03 | inactive |
| CYP4V2 (GeneID 285440) | 0.51 | inactive |
| CHMP2A (GeneID 27243) | -1.25 | inactive |
| CHMP2A (GeneID 27243) | -0.91 | inactive |
| CHMP2A (GeneID 27243) | -1.78 | active |
| CHMP2A (GeneID 27243) | -1.14 | inactive |
| LMO2 (GeneID 4005) | 0.55 | inactive |
| LMO2 (GeneID 4005) | -0.64 | inactive |
| LMO2 (GeneID 4005) | -0.3 | inactive |
| LMO2 (GeneID 4005) | 1.57 | inactive |
| MIEN1 (GeneID 84299) | 4.76 | active |
| MIEN1 (GeneID 84299) | 3.19 | active |
| MIEN1 (GeneID 84299) | 0.66 | inactive |
| MIEN1 (GeneID 84299) | 1.15 | inactive |

Continued, starting with the last 8 of the part before.
| target | TNF reporter robust z-score | Call |
| --- | --- | --- |
| LMO2 (GeneID 4005) | 0.55 | inactive |
| LMO2 (GeneID 4005) | -0.64 | inactive |
| LMO2 (GeneID 4005) | -0.3 | inactive |
| LMO2 (GeneID 4005) | 1.57 | inactive |
| MIEN1 (GeneID 84299) | 4.76 | active |
| MIEN1 (GeneID 84299) | 3.19 | active |
| MIEN1 (GeneID 84299) | 0.66 | inactive |
| MIEN1 (GeneID 84299) | 1.15 | inactive |
| NME1-NME2 (GeneID 654364) | -0.81 | inactive |
| NME1-NME2 (GeneID 654364) | -0.72 | inactive |
| NME1-NME2 (GeneID 654364) | -0.4 | inactive |
| NME1-NME2 (GeneID 654364) | 1.03 | inactive |
| PTPRH (GeneID 5794) | 0.36 | inactive |
| PTPRH (GeneID 5794) | 0.42 | inactive |
| PTPRH (GeneID 5794) | -0.5 | inactive |
| PTPRH (GeneID 5794) | 1.14 | inactive |
| REX1BD (GeneID 55049) | -0.85 | inactive |
| REX1BD (GeneID 55049) | 0.79 | inactive |
| REX1BD (GeneID 55049) | 0.37 | inactive |
| REX1BD (GeneID 55049) | -0.22 | inactive |
| EIF6 (GeneID 3692) | 0.85 | inactive |
| EIF6 (GeneID 3692) | 0.03 | inactive |
| EIF6 (GeneID 3692) | -0.17 | inactive |
| EIF6 (GeneID 3692) | 0.2 | inactive |
| PTGES3 (GeneID 10728) | -1.08 | inactive |
| PTGES3 (GeneID 10728) | -1.25 | inactive |
| PTGES3 (GeneID 10728) | -0.93 | inactive |
| FBXW12 (GeneID 285231) | 0.76 | inactive |
| FBXW12 (GeneID 285231) | -0.32 | inactive |
| FBXW12 (GeneID 285231) | -1.41 | inactive |
| FBXW12 (GeneID 285231) | -0.37 | inactive |
| C5orf34 (GeneID 375444) | -0.52 | inactive |
| C5orf34 (GeneID 375444) | -0.38 | inactive |
| C5orf34 (GeneID 375444) | -1.03 | inactive |
| C5orf34 (GeneID 375444) | -0.97 | inactive |
| OR7E24 (GeneID 26648) | 1.4 | inactive |
| OR7E24 (GeneID 26648) | 1.39 | inactive |
| OR7E24 (GeneID 26648) | 2.35 | inactive |
| OR7E24 (GeneID 26648) | 2.19 | inactive |
| NBPF10 (GeneID 100132406) | -1.24 | inactive |
| NBPF10 (GeneID 100132406) | -0.74 | inactive |
| NBPF10 (GeneID 100132406) | -0.79 | inactive |
| NBPF10 (GeneID 100132406) | -0.66 | inactive |
| WNT4 (GeneID 54361) | 1.39 | inactive |
| WNT4 (GeneID 54361) | 2.21 | inactive |
| WNT4 (GeneID 54361) | 1.97 | inactive |
| WNT4 (GeneID 54361) | 0.41 | inactive |
| TMEM132A (GeneID 54972) | -1.66 | active |
| TMEM132A (GeneID 54972) | -1.02 | inactive |
| TMEM132A (GeneID 54972) | -0.91 | inactive |
| TMEM132A (GeneID 54972) | -1.11 | inactive |
| PDE8A (GeneID 5151) | 0.06 | inactive |
| PDE8A (GeneID 5151) | 3.11 | active |
| PDE8A (GeneID 5151) | 0.25 | inactive |
| PDE8A (GeneID 5151) | 2.91 | active |
| CFAP91 (GeneID 89876) | 1.52 | inactive |
| CFAP91 (GeneID 89876) | 1.74 | inactive |
| CFAP91 (GeneID 89876) | 2.02 | inactive |
| CFAP91 (GeneID 89876) | 2.12 | inactive |
